Measured values: publication PMC10097667
No constants are given. Whether binding was seen depends on the method and setting. In cells and extracts the contact can be indirect. Some binding calls cover weakened binding; strength is not graded here. Tags and fused reporters may be left off the sequences shown.

T1: GFP-PKD1 WT (UniProt Q62101)
T1 sequence: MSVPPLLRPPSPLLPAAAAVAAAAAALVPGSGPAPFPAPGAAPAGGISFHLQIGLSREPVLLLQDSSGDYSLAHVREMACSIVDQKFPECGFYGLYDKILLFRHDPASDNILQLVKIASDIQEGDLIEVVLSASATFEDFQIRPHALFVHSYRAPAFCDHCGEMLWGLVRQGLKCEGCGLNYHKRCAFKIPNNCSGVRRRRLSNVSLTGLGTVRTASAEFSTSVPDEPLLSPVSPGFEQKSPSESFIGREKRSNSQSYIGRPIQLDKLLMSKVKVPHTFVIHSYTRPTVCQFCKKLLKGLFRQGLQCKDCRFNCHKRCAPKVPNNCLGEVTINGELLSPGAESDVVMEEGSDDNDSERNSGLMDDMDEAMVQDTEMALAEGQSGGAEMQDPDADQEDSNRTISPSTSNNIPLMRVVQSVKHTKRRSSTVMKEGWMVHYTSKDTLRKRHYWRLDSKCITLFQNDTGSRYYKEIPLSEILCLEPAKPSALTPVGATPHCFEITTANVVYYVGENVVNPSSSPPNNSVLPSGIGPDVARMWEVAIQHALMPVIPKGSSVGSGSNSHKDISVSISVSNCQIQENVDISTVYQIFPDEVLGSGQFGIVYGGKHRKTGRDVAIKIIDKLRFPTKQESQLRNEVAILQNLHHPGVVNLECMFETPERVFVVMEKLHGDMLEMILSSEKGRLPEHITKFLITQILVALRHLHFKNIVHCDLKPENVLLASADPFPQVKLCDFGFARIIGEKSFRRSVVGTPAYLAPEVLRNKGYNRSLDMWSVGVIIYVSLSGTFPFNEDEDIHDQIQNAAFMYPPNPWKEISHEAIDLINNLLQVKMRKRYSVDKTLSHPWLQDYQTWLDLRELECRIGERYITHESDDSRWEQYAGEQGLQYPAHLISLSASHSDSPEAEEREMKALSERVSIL


Target: T1, GFP-PKD1 WT
Assay: co-IP; HEK293T cells transiently co-transfected with GFP-PKD WT or GFP vector and HA-Spry2 constructs; cytoplasmic extracts (HEPES 25 mM pH 7.5, NaCl, 1% NP40) incubated with anti-GFP polyclonal rabbit antibody or unspecific rabbit IgG; immunoblot with anti-HA

binding | Binder
binds | HA-Spry2 WT (full-length protein) (protein, UniProt O43597 1-315) MEARAQSGNGSQPLLQTPRDGGRQRGEPDPRDALTQQVHVLSLDQIRAIRNTNEYTEGPTVVPRPGLKPAPRPSTQHKHERLHGLPEHRQPPRLQHSQVHSSARAPLSRSISTVSSGSRSSTRTSTSSSSSEQRLLGSSFSSGPVADGIIRVQPKSELKPGELKPLSKEDLGLHAYRCEDCGKCKCKECTYPRPLPSDWICDKQCLCSAQNVIDYGTCVCCVKGLFYHCSNDDEDNCADNPCSCSQSHCCTRWSAMGVMSLFLPCLWCYLPAKGCLKLCQGCYDRVNRPGCRCKNSNTVCCKVPTVPPRNFEKPT
no binding | HA-Spry2-Nter (truncated mutant spanning residues 1-177 of Spry2) (domain or fragment, UniProt O43597 1-177) MEARAQSGNGSQPLLQTPRDGGRQRGEPDPRDALTQQVHVLSLDQIRAIRNTNEYTEGPTVVPRPGLKPAPRPSTQHKHERLHGLPEHRQPPRLQHSQVHSSARAPLSRSISTVSSGSRSSTRTSTSSSSSEQRLLGSSFSSGPVADGIIRVQPKSELKPGELKPLSKEDLGLHAYR
binds | HA-Spry2-Cter (truncated mutant spanning residues 177-315 of Spry2) (domain or fragment, UniProt O43597 177-315) RCEDCGKCKCKECTYPRPLPSDWICDKQCLCSAQNVIDYGTCVCCVKGLFYHCSNDDEDNCADNPCSCSQSHCCTRWSAMGVMSLFLPCLWCYLPAKGCLKLCQGCYDRVNRPGCRCKNSNTVCCKVPTVPPRNFEKPT
